Record: PubChem BioAssay AID1671195 (Yale University, 2021)
The whole screen tested about 22,000 reagents; shown is a random part of them. In the full data, about 1,510 (6.9%) got an active call. 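Active includes knockdowns raising or lowering LDL uptake; positive z-scores mean more uptake, negative mean less.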 A number with no mark means an inactive call. Reagents against one gene are numbered here.

Test: 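Regulators of LDL receptor activity judged by labelled LDL uptake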 (primary screen)
System: human Huh7 hepatoma cells
Reagent: siRNA pool against human genes, 18 nM
Time to read-out: about 2 to 2.5 days of knockdown, then 8 h LDL uptake
Challenge: DiI-labelled LDL at 30 µg/ml for 8 h, in lipoprotein-deficient serum medium
Measured: 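Fluorescent LDL signal imaged in cells, scaled to the plate median, robust z-score for each replicate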
Scale: robust z-score: higher = more LDL uptake after knockdown
Hit rule: 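a gene counts as active if at least two replicate z-scores exceed ±2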

{"Gene":"BCO1","reagent no.":1,"robust z-score, replicate 1":-1.86,"robust z-score, replicate 2":-1.73,"robust z-score, replicate 3":-2.03}
{"Gene":"BMP4","reagent no.":1,"robust z-score, replicate 1":1.64,"robust z-score, replicate 2":-0.143,"robust z-score, replicate 3":2.53}
{"Gene":"COPS9","reagent no.":1,"robust z-score, replicate 1":1.62,"robust z-score, replicate 2":0.693,"robust z-score, replicate 3":1.86}
{"Gene":"OR10H1","reagent no.":1,"robust z-score, replicate 1":-2.35,"robust z-score, replicate 2":-0.487,"robust z-score, replicate 3":-1.76}
{"Gene":"NUP214","reagent no.":1,"robust z-score, replicate 1":1.26,"robust z-score, replicate 2":0.874,"robust z-score, replicate 3":0.149}
{"Gene":"SMYD2","reagent no.":1,"robust z-score, replicate 1":-1.76,"robust z-score, replicate 2":-1.63,"robust z-score, replicate 3":-1.53}
{"Gene":"LOC441017 (retired record)","reagent no.":1,"robust z-score, replicate 1":0.476,"robust z-score, replicate 2":0.314,"robust z-score, replicate 3":0.265}
{"Gene":"PANX2","reagent no.":1,"robust z-score, replicate 1":-1.89,"robust z-score, replicate 2":-0.971,"robust z-score, replicate 3":-0.962}
{"Gene":"PSMA8","reagent no.":1,"robust z-score, replicate 1":0.477,"robust z-score, replicate 2":-0.341,"robust z-score, replicate 3":-0.0755}
{"Gene":"NACC1","reagent no.":1,"robust z-score, replicate 1":-0.651,"robust z-score, replicate 2":-0.502,"robust z-score, replicate 3":-0.98}
{"Gene":"UGP2","reagent no.":1,"robust z-score, replicate 1":"2.12 (active)","robust z-score, replicate 2":2.77,"robust z-score, replicate 3":2.48}
{"Gene":"ISY1","reagent no.":1,"robust z-score, replicate 1":-1.09,"robust z-score, replicate 2":-1.13,"robust z-score, replicate 3":-1.13}
{"Gene":"LOC400638 (retired record)","reagent no.":1,"robust z-score, replicate 1":-0.523,"robust z-score, replicate 2":-1.02,"robust z-score, replicate 3":-0.955}
{"Gene":"TTC13","reagent no.":1,"robust z-score, replicate 1":0.0361,"robust z-score, replicate 2":0.698,"robust z-score, replicate 3":0.84}
{"Gene":"C8orf15 (retired record)","reagent no.":1,"robust z-score, replicate 1":"4.03 (active)","robust z-score, replicate 2":3.19,"robust z-score, replicate 3":2.58}
{"Gene":"RTP3","reagent no.":1,"robust z-score, replicate 1":-0.565,"robust z-score, replicate 2":0.243,"robust z-score, replicate 3":-0.214}
{"Gene":"BCL11B","reagent no.":1,"robust z-score, replicate 1":-1.63,"robust z-score, replicate 2":-1.47,"robust z-score, replicate 3":-1.41}
{"Gene":"SUMF2","reagent no.":1,"robust z-score, replicate 1":1.29,"robust z-score, replicate 2":1.33,"robust z-score, replicate 3":1.2}
{"Gene":"TMEM143","reagent no.":1,"robust z-score, replicate 1":0.468,"robust z-score, replicate 2":1.58,"robust z-score, replicate 3":0.683}
{"Gene":"ABCD1","reagent no.":1,"robust z-score, replicate 1":-0.144,"robust z-score, replicate 2":0.438,"robust z-score, replicate 3":-0.459}
{"Gene":"DCPH1","reagent no.":1,"robust z-score, replicate 1":0.0628,"robust z-score, replicate 2":-0.0227,"robust z-score, replicate 3":-0.627}
{"Gene":"LOC341720 (retired record)","reagent no.":1,"robust z-score, replicate 1":0.526,"robust z-score, replicate 2":0.667,"robust z-score, replicate 3":0.268}
{"Gene":"MS4A15","reagent no.":1,"robust z-score, replicate 1":1.09,"robust z-score, replicate 2":0.899,"robust z-score, replicate 3":1.59}
{"Gene":"POLR1D","reagent no.":1,"robust z-score, replicate 1":-0.815,"robust z-score, replicate 2":-1.14,"robust z-score, replicate 3":-0.636}
{"Gene":"POLR1D","reagent no.":2,"robust z-score, replicate 1":-1.01,"robust z-score, replicate 2":-1.48,"robust z-score, replicate 3":-1.07}
{"Gene":"ALPK3","reagent no.":1,"robust z-score, replicate 1":-0.419,"robust z-score, replicate 2":-0.177,"robust z-score, replicate 3":-0.459}
{"Gene":"CDC42SE2","reagent no.":1,"robust z-score, replicate 1":-0.298,"robust z-score, replicate 2":0.392,"robust z-score, replicate 3":0.275}
{"Gene":"TRIM21","reagent no.":1,"robust z-score, replicate 1":-1.05,"robust z-score, replicate 2":-0.902,"robust z-score, replicate 3":-1.19}
{"Gene":"UPK2","reagent no.":1,"robust z-score, replicate 1":-1.08,"robust z-score, replicate 2":-0.429,"robust z-score, replicate 3":0.28}
{"Gene":"VPS11","reagent no.":1,"robust z-score, replicate 1":-0.217,"robust z-score, replicate 2":0.0817,"robust z-score, replicate 3":0.0702}

Called active (from the list above):
{"Gene":"UGP2","reagent no.":1,"robust z-score, replicate 1":"2.12 (active)","robust z-score, replicate 2":2.77,"robust z-score, replicate 3":2.48}
{"Gene":"C8orf15 (retired record)","reagent no.":1,"robust z-score, replicate 1":"4.03 (active)","robust z-score, replicate 2":3.19,"robust z-score, replicate 3":2.58}
